Assay [1] deals with LexA-TMIGD1 cytoplasmic tail (pBTM116-TMIGD1, AA 241-262) (human) (UniProt Q6UXZ0). The experiment in a line: two-hybrid.
Assay [2] concerns the target T1, TMIGD1/WT expressed in HEK293T cells (co-IPs with E3KARP, EBP50 and ezrin) (human) (UniProt Q6UXZ0).
T1 sequence: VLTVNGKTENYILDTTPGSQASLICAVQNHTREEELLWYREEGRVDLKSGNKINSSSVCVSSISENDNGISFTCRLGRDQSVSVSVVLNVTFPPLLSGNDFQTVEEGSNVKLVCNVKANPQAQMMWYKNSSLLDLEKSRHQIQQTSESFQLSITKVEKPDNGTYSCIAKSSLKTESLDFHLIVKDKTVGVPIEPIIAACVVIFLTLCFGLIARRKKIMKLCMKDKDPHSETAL
The assay can be described thus: co-IP.

By UniProt entry, the sequences of proteins in these tests, tags left out. Residues count along the entry.
UniProt Q9JHL1, residues 140-307: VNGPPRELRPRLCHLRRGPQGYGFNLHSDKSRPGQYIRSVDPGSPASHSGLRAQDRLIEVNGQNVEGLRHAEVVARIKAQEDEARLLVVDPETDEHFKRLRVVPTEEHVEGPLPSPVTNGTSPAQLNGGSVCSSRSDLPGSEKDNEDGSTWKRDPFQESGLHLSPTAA
UniProt Q15599: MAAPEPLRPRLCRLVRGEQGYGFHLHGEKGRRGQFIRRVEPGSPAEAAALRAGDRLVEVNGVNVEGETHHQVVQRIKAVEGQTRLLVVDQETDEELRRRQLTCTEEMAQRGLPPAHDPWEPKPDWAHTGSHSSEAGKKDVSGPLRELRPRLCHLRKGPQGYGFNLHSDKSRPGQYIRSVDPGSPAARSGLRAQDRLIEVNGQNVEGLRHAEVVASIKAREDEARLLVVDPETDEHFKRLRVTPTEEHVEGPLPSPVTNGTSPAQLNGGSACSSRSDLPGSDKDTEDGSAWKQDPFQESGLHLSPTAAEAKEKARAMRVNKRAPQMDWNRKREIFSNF

Assay [3] deals with GST-TMIGD1 (hTMIGD1 cytoplasmic tail, AA 242-262) (human) (UniProt Q6UXZ0). The experiment in a line: pull-down.
Assay [4] concerns the target T1, TMIGD1/WT expressed in HEK293T cells (co-IPs with E3KARP, EBP50 and ezrin) (human). The experiment in a line: co-IP. This is another data set of the same source.
Assay [5] concerns the target T2, Flag-EGFP-TMIGD1 (EGFP-hTMIGD1, AA 30-262, EGFP inserted between AA211 and AA212 of TMIGD1) (human) (UniProt Q6UXZ0).
T2 sequence: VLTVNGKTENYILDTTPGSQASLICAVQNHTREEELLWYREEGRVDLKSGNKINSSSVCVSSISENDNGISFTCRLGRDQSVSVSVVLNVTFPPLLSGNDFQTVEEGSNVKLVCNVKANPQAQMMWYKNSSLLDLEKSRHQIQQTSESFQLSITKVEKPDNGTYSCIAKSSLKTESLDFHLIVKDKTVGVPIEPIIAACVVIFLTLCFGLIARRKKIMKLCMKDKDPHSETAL
The assay can be described thus: co-IP.

Where two headings read alike, the source gives them in different places. No constants are given. Whether binding was seen depends on the method and setting. For part of these data: In cells and extracts the contact can be indirect. Some results given as binding are weak or reduced against the parent protein; the word gives no strength. For part of these data: Where a sequence is shown, tags or fusion partners need not be part of it.

For the molecule “murine E3KARP/NHERF2 cDNA fragment AA 140-307 (yeast two-hybrid library clone) (from UniProt Q9JHL1 140-307) (domain or fragment)”, the binding entry in assay [1] is given as “binds”.

As for “hE3KARP full length (E3KARP/WT, AA 2-337), expressed in HEK293T cells (from UniProt Q15599 1-337)”, the binding entry in assay [2] and in assay [3] was “binds” each time.

With “hEBP50_S162A (AA 1-358_S162A) expressed in HEK293T cells (from UniProt O14745 1-358)”, the binding entry in assay [2] was “binds”.

B1: hEBP50 with mutated PDZ domain 1 (hEBP50_P1M, AA 1-358_G25AF26A) expressed in HEK293T cells (protein, UniProt O14745 1-358)
chain: MSADAAAGAPLPRLCCLEKGPNGYAAHLHGEKGKLGQYIRLVEPGSPAEKAGLLAGDRLVEVNGENVEKETHQQVVSRIRAALNAVRLLVVDPETDEQLQKLGVQVREELLRAQEAPGQAEPPAAAEVQGAGNENEPREADKSHPEQRELRPRLCTMKKGPSGYGFNLHSDKSKPGQFIRSVDPDSPAEASGLRAQDRIVEVNGVCMEGKQHGDVVSAIRAGGDETKLLVVDRETDEFFKKCRVIPSQEHLNGPLPVPFTNGEIQKENSREALAEAALESPRPALVRSASSDTSEELNSQDSPPKQDSTAPSSTSSSDPILDFNISLAMAKERAHQKRSSKRAPQMDWSKKNELFSNL
Regarding B1, the binding result in assay [4] is “binds weakly”.

B2: hEBP50 with mutated PDZ domain 2 (hEBP50_P2M, AA 1-358_G165AF166A) expressed in HEK293T cells (protein, UniProt O14745 1-358)
chain: MSADAAAGAPLPRLCCLEKGPNGYGFHLHGEKGKLGQYIRLVEPGSPAEKAGLLAGDRLVEVNGENVEKETHQQVVSRIRAALNAVRLLVVDPETDEQLQKLGVQVREELLRAQEAPGQAEPPAAAEVQGAGNENEPREADKSHPEQRELRPRLCTMKKGPSGYAANLHSDKSKPGQFIRSVDPDSPAEASGLRAQDRIVEVNGVCMEGKQHGDVVSAIRAGGDETKLLVVDRETDEFFKKCRVIPSQEHLNGPLPVPFTNGEIQKENSREALAEAALESPRPALVRSASSDTSEELNSQDSPPKQDSTAPSSTSSSDPILDFNISLAMAKERAHQKRSSKRAPQMDWSKKNELFSNL
As to B2, the binding result in assay [4] is reported as “binds weakly”.

B3: hEBP50_S339AS340A (AA 1-358_S339AS340A) expressed in HEK293T cells (protein, UniProt O14745 1-358)
chain: MSADAAAGAPLPRLCCLEKGPNGYGFHLHGEKGKLGQYIRLVEPGSPAEKAGLLAGDRLVEVNGENVEKETHQQVVSRIRAALNAVRLLVVDPETDEQLQKLGVQVREELLRAQEAPGQAEPPAAAEVQGAGNENEPREADKSHPEQRELRPRLCTMKKGPSGYGFNLHSDKSKPGQFIRSVDPDSPAEASGLRAQDRIVEVNGVCMEGKQHGDVVSAIRAGGDETKLLVVDRETDEFFKKCRVIPSQEHLNGPLPVPFTNGEIQKENSREALAEAALESPRPALVRSASSDTSEELNSQDSPPKQDSTAPSSTSSSDPILDFNISLAMAKERAHQKRAAKRAPQMDWSKKNELFSNL
Turning to B3, the binding entry in assay [4] was “binds”.

B4: hEBP50_S280AS302A (AA 1-358_S280AS302A) expressed in HEK293T cells (protein, UniProt O14745 1-358)
chain: MSADAAAGAPLPRLCCLEKGPNGYGFHLHGEKGKLGQYIRLVEPGSPAEKAGLLAGDRLVEVNGENVEKETHQQVVSRIRAALNAVRLLVVDPETDEQLQKLGVQVREELLRAQEAPGQAEPPAAAEVQGAGNENEPREADKSHPEQRELRPRLCTMKKGPSGYGFNLHSDKSKPGQFIRSVDPDSPAEASGLRAQDRIVEVNGVCMEGKQHGDVVSAIRAGGDETKLLVVDRETDEFFKKCRVIPSQEHLNGPLPVPFTNGEIQKENSREALAEAALEAPRPALVRSASSDTSEELNSQDAPPKQDSTAPSSTSSSDPILDFNISLAMAKERAHQKRSSKRAPQMDWSKKNELFSNL
In the case of B4, the binding entry in assay [4] is reported as “binds”.

B5: untagged hTMIGD1 full length (TMIGD1/WT, AA 1-262, pcDNA3) expressed in HEK293T cells (protein, UniProt Q6UXZ0 30-262)
chain: VLTVNGKTENYILDTTPGSQASLICAVQNHTREEELLWYREEGRVDLKSGNKINSSSVCVSSISENDNGISFTCRLGRDQSVSVSVVLNVTFPPLLSGNDFQTVEEGSNVKLVCNVKANPQAQMMWYKNSSLLDLEKSRHQIQQTSESFQLSITKVEKPDNGTYSCIAKSSLKTESLDFHLIVKDKTVGVPIEPIIAACVVIFLTLCFGLIARRKKIMKLCMKDKDPHSETAL
On to B5, for which the binding entry in assay [5] is “binds”.

The record behind these values is article doi:10.1101/2021.01.25.428038 (bioRxiv, 2021).
